The target in this assay is S-phase kinase-associated protein 2 (UniProt Q9Z0Z3). The experiment in a line: co-IP; cells lysed in RIPA buffer on ice, lysate pre-cleared with protein A + G agarose, incubated with 1 µg antibody or IgG overnight at 4℃, precipitated with protein A + G agarose, Western blotting. Background: In western blotting, separated proteins are transferred to a membrane and probed.

Amino acid sequences for entries named in this document (tags omitted).
UniProt Q9Z0Z3: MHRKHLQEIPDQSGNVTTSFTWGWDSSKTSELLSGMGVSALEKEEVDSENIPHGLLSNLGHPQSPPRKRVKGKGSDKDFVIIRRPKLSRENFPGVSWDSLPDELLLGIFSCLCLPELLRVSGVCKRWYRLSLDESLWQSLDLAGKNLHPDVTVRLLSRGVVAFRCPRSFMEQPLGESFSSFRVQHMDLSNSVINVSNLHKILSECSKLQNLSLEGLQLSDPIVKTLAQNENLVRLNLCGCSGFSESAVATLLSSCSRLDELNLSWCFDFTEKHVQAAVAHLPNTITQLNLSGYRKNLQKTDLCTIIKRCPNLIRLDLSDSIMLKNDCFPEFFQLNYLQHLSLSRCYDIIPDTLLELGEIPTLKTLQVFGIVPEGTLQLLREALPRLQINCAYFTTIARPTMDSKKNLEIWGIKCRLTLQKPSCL
UniProt Q08775: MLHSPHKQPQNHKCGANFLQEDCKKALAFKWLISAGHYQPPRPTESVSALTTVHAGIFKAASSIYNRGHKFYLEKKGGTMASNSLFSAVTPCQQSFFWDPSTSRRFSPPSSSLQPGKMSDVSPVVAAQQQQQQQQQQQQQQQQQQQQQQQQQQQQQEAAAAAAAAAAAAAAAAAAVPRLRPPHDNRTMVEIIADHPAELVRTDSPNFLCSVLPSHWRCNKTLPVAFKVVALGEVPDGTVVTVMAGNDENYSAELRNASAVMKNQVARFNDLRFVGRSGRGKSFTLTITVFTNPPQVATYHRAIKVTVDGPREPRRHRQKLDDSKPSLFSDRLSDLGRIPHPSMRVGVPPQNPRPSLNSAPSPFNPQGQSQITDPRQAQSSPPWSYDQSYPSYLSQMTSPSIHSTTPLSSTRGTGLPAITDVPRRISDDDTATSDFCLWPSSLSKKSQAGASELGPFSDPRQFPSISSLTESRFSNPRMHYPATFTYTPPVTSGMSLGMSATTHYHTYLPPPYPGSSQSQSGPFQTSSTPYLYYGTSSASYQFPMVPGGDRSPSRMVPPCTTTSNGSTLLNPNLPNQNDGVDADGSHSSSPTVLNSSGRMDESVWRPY

No constants are given. Whether binding was seen depends on the method and setting. In cells and extracts the contact can be indirect. Some binding calls cover weakened binding; strength is not graded here.

In the case of “Runt-related transcription factor 2 (from UniProt Q08775 1-607)”, the binding entry is recorded as “binds”.

Values taken from PMC11837617.
